Data set [1] addresses Hfq wt (Escherichia coli) (UniProt P0A6X3). Description: filter binding.
The target of data set [2] is Hfq K56A (proximal face) (Escherichia coli) (UniProt P0A6X3). Kind of data set: filter binding.
The target in data set [3] is Hfq wt (Escherichia coli) (UniProt P0A6X3). Description: competition with a labelled probe. Particulars: did not displace 32P-A27 (distal face only, GcvB binds Hfq otherwise).
The target in data set [4] is Hfq Y25D (distal face) (Escherichia coli) (UniProt P0A6X3). Description: filter binding. Particulars: markedly impaired vs wt Hfq.

For at least one entry, the source does not settle the construct or the ends of the probe. For part of these data: No signal at the amounts used counts as a negative. For part of these data: Weaker means in comparison with the reference protein, sequence or condition of that experiment. For part of these data: At least one verdict rests on a figure or table, not on a statement of the authors.

These results are taken from doi:10.1101/2021.04.25.441314.

Consider AAAAAAAAAAAAAAAAAAAAAAAAAAA [A27], for which the binding result in data set [1] (labeled distal-face probe in competition) is reported as “binds”.
In the case of “GACUUCCUGAGCCGGAACGAAAAGUUUUAUCGGAAUGCGUGUUCUGGUGAACUUUUGGCUUACGGUUGUGAUGUUGUGUUGUUGUGUUUGCAAUUGGUCUGCGAUUCAGACCAUGGUAGCAAAGCUACCUUUUUUCACUUCCUGUACAUUUACCCUGUCUGUCCAUAGUGAUUAAUGUAGCACCGCCUAAUUGCGGUGCUUUUUUU [GcvB]”, the binding result was “binds more weakly” in data set [2] (mutation detrimental for binding) and “no binding” in data set [3].
Turning to “GGCCCGGAUGGUGGAAUCGGUAGACACAAGGGAUUUAAAAUCCCUCGGCGUUCGCGCUGUGCGGGUUCAAGUCCCGCUCCGGGUACCAUGGGAAAGAUAAGAAUAAAAUCAAAGCAAUAAGCAGUGUCGUGAAACCACCUUCGGGUGGUUUU [3'ETSleuZ-U4]”, in data set [4], the binding result is “binds more weakly”.
Take “GGCCCGGAUGGUGGAAUCGGUAGACACAAGGGAUUUAAAAUCCCUCGGCGUUCGCGCUGUGCGGGUUCAAGUCCCGCUCCGGGUACCAUGGGAAAGAUAAGAAUAAAAUCAAAGCAAUAAGCAGUGUCGUGAAACCACCUUCGGGUGGUUUUUUU [3'ETSleuZ]”: the binding result in data set [2] (significantly weaker than wt) is given as “binds more weakly”.
With UUUUUUUUUUUUUUUUUU [U18], in data set [1] (labeled proximal-face probe in competition), the binding result was “binds”.
